Earlier results as cited in US12576020B2, “Increasing the stability of agents for the treatment of keratinous material” (Henkel AG & Co. KGaA, priority 2019, dated 2026).

Details: 25° C.

## CCN(Cc1cccc(S(=O)(=O)[O-])c1)c1ccc(C(=C2C=CC(=[N+](CC)Cc3cccc(S(=O)(=O)[O-])c3)C=C2)c2ccccc2S(=O)(=O)[O-])cc1.[Na+].[Na+] [Acid Blue 9]
  solubility in water: more than 20 % by weight
